Data on 61 compounds can be found in PubChem BioAssay AID493014 (National Center for Advancing Translational Sciences (NCATS), 2011).

This is one part of the list. Further columns of the screen follow, without active or inactive calls. Compounds called inactive in the main read-out are mostly missing here. Words in brackets tell the shape of the fitted curve; partial curves, single points and poor fits give uncertain potencies.

The experiment in a line: qHTS Assay to Find Inhibitors of Chronic Active B-Cell Receptor Signaling. The settings on record: ABC-DLBCL IkBa-CBG/CBR reporter, luminescence ratio (green luciferase fused to IkBa over red control in TMD8 lymphoma cells), 4 h. The essentials: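 TMD8 ABC-DLBCL cells carrying doxycycline-inducible green luciferase fused to IkappaBalpha plus unfused red luciferase were exposed to compounds (up to 46 uM) for 4 hrs at 37C. Activity came from the overlap-corrected green/red luminescence ratio.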

Setting [1] is: measured here: CBR red luminescence, cell number.
[2] abbreviates: measured here: IkBa-CBG green luminescence.

Turning to `CCN(CC)c1ccc(NC(=O)OC)cc1`, the concentration at half-maximal activity (AC50) under setting [1] was 6.51 µM [falling, single point]. Turning to `Cc1ccc(C(=O)N2CCc3cc(CNC(=O)CSc4ccccc4)ccc32)cc1`, under setting [2], the AC50 is 35.5 µM [rising, partial curve, poor fit].

Take `O=C(N/N=C/c1ccsc1)c1cc(-c2ccncc2)nc2ccccc12`: the AC50 reads like this: under setting [1], 20.6 µM [rising, partial curve, poor fit]; under setting [2], 16.4 µM [falling, single point]. Consider `O=C1C2C(c3ccccc3)C=CC(c3ccccc3)C2C(=O)N1C1CCCCC1` (configuration not stated), for which the AC50 under setting [1] is 2.91 µM [rising, single point]. The same measure, in the same setting: with `FC(F)(F)c1nnc(-c2ccccc2)nc1Sc1ccccc1` the figure was 35.5 µM [falling, single point]. Turning to `COc1cccc(Nc2ccc(Nc3cccc(OC)c3)nn2)c1`, the AC50 by setting is: under setting [1], 1.64 µM [falling, full curve]; under setting [2], 23.1 µM [rising, partial curve, poor fit]. Regarding `COc1ccc(NC(=O)COC(=O)CNC(=O)c2cccs2)cc1Cl`, the AC50 under setting [1] was 29.1 µM [rising, single point]. On the same count and under the same terms, with `Cc1ccc(/C=N/NC(=O)c2csc(C)c2)o1` the figure was 20.6 µM [falling, partial curve, poor fit]; with `NS(=O)(=O)c1ccc(NC(=O)COC(=O)c2ccc([N+](=O)[O-])s2)cc1`, 35.5 µM [falling, single point]. Take `COC(=O)c1sccc1-c1ccc(C(=O)Nc2cccc(Cl)c2)o1`: the half-maximal activity concentration (AC50) under setting [1] is 0.891 µM [falling, partial curve, poor fit]. For `Cc1cccc(NC(=S)N(Cc2cccc(Br)c2)CC2CCC(C(=O)O)CC2)c1` (configuration not stated), the AC50 was 35.5 µM [falling, single point] under setting [1] and 12.6 µM [rising, partial curve, poor fit] under setting [2]. Turning to `CCCC(=O)N1CCC(O)(c2cccc(F)c2)CC1`, the AC50 under setting [1] is 14.1 µM [rising, single point].

Take `CC(C)Oc1ccc(CNC(=O)CCC(=O)N2CC(C)Sc3ccccc32)cc1` (configuration not stated): the half-maximal activity concentration (AC50) under setting [1] is 35.5 µM [falling, partial curve, poor fit]. The same measure, in the same setting: for `CC(Oc1ccc(-c2nccc(-c3ccccn3)n2)cc1)C(=O)NN` (configuration not stated) the value was 15.8 µM [falling, partial curve, poor fit]; for `Cc1ccccc1-c1cc(C(=O)NCC2CC2)nn1CC1CC(c2cccc([N+](=O)[O-])c2)=NO1` (configuration not stated), 29.1 µM [falling, single point]; for `CCCc1nnc(NC(=O)c2cccnc2)s1`, 11.2 µM [falling, single point]. Same read-out and setting: for `COc1ccc(/C=N/NC(=O)c2ccc3nc[nH]c3c2)c(OC)c1OC` the value was 0.794 µM [falling, full curve, poor fit]; for `CC(C(=O)O)N1c2cccc3cccc(c23)S1(=O)=O` (configuration not stated), 7.08 µM [rising, partial curve, poor fit]; for `Cc1ccc(NC(=O)/C(C#N)=C/c2cccs2)c(C)c1`, 29.1 µM [rising, single point].

For the compound `COc1ccc(NC(=O)Nc2cccc3c2O[C@H](CN(C)C(=O)Nc2ccc4c(c2)OCO4)[C@@H](C)CN([C@H](C)CO)C3=O)cc1`, the half-maximal activity concentration (AC50) under setting [1] was 6.51 µM [rising, single point]. The same measure, in the same setting: for `NC1=NC[C@H](c2ccccc2)N1CCc1cccc(F)c1` the value was 1.12 µM [rising, full curve, poor fit]; for `CC(C)CC1(C(=O)NCc2cc(F)cc(C(F)(F)F)c2)C=CCN1C(=O)c1ccccc1` (configuration not stated), 2.31 µM [falling, full curve, poor fit].

As for `Cc1cccc(OCC(=O)Nc2cc(NC(=O)COc3cccc(C)c3C)cc(C(=O)O)c2)c1C`, the concentration at half-maximal activity (AC50) under setting [1] is 0.1 µM [rising, full curve, poor fit]. On the same count and under the same terms, with `O=C(Nc1cccc(NC(=O)c2ccc([N+](=O)[O-])o2)c1)c1ccco1` the figure was 10 µM [falling, partial curve, poor fit]; with `Cc1c(C(=O)NCCN2C(=O)S/C(=C\c3cccnc3)C2=O)cccc1[N+](=O)[O-]`, 10 µM [falling, partial curve].

As to `Cc1ccc2nc(NC(=O)C3CCN(S(=O)(=O)c4cccc5nsnc45)CC3)sc2c1`, under setting [1], the AC50 is 5.17 µM [falling, full curve]. Still for that read-out and setting: for `C#CCNC(=O)C1=C[C@@H](c2csc3ccccc23)[C@H](CCCO)[C@@H](OCC)O1` the value was 6.31 µM [rising, single point]; for `COc1ccc(NC(=O)Nc2ccc(Br)c(C)c2)cc1`, 2.51 µM [rising, full curve, poor fit]. Same read-out and setting: for `CC/C(=N\Nc1ccc([N+](=O)[O-])cc1)c1ccccc1` the value was 11.2 µM [falling, partial curve, poor fit]. The same measure, in the same setting: with `COc1ccc(NC(=O)Nc2ccc3nonc3c2)cc1` the figure was 14.1 µM [falling, single point]; with `CN(C)/C=N/c1ncnc2c1cnn2-c1ccc(C(F)(F)F)cn1`, 5.8 µM [rising, full curve]; with `CCSc1nnc(NC(=O)CSc2nnc(C)c(=O)n2N)s1`, 35.5 µM [falling, single point]. `Nc1ccccc1C(=O)N1O[C@@H]2C=C[C@H]1CC2`: under setting [1], the AC50 is 9.2 µM [rising, partial curve, poor fit]. The same measure, in the same setting: for `O=C(CC1CC2CCC1C2)OCC(=O)c1c[nH]c2ccccc12` (configuration not stated) the value was 3.98 µM [rising, single point]; for `O=C(Nc1ccccc1)Oc1ccc[nH]c1=O`, 22.4 µM [rising, single point]. Turning to `Cc1c(Cc2ccc3c(c2)OCO3)sc(NC(=O)c2ccc3ccccc3c2)c1C(N)=O`, under setting [1], the AC50 was 29.1 µM [rising, single point]. Same read-out and setting: with `COc1ccc(C(CCN(Cc2ccc(OC)c(OC)c2)C(=O)CCl)c2ccccc2)cc1` (configuration not stated) the figure was 14.6 µM [falling, partial curve, poor fit]. Still for that read-out and setting: with `COC(=O)c1ccccc1-c1c2ccc(=N)cc-2oc2cc(N)ccc12` the figure was 13 µM [rising, partial curve, poor fit]. Same read-out and setting: with `O=c1c(S(=O)(=O)c2ccc(Cl)cc2)cn(Cc2cccc(F)c2)c2ccc(F)cc12` the figure was 0.82 µM [falling, full curve, poor fit]. `CC(=O)Nc1ccc(N=NC2C(=O)N(C(N)=S)N=C2C)cc1` (configuration not stated): the half-maximal activity concentration (AC50) under setting [1] was 31.6 µM [rising, single point].

As for `COC(=O)C1=C(C)N(Cc2ccccc2)C(=NCCCCO)N[C@H]1CCc1ccccc1`, under setting [1], the concentration at half-maximal activity (AC50) is 35.5 µM [falling, single point]. On to `CCOC(=O)COc1cccc2c(=O)n(CC(=O)NCc3ccc(F)cc3)ccc12`, for which the AC50 by setting is: under setting [1], 7.94 µM [rising, partial curve, poor fit]; under setting [2], 5.01 µM [falling, partial curve].

Regarding `c1nc(NCc2ccc3c(c2)OCO3)c2cc(-c3ccoc3)ccc2n1`, the half-maximal activity concentration (AC50) under setting [1] is 16.4 µM [falling, single point]. On the same count and under the same terms, for `O=C(COC(=O)c1ccccc1)Nc1ncc([N+](=O)[O-])s1` the value was 18.4 µM [falling, single point]; for `O=C(Nc1ccc(Br)cc1F)c1sccc1-n1cccc1`, 7.08 µM [rising, partial curve].

As for `CCOC(=O)CCCn1nc(C)n2c(cc3sccc32)c1=O`, the AC50 under setting [1] was 7.31 µM [falling, partial curve, poor fit]. Consider `Oc1ccccc1-c1nnc(SCCN2CCOCC2)n1Cc1ccccc1`, for which the AC50 under setting [1] is 35.5 µM [falling, single point]. On the same count and under the same terms, with `Cc1cc(-c2ccccc2)nc2oc3c(c12)NC(=O)CN(c1ccccc1)C3=O` the figure was 1.26 µM [rising, full curve]. For `COc1ccc(Cc2nnc(NC(=O)c3cc(OC)c(OC)c(OC)c3)s2)cc1`, the AC50 was 10 µM [rising, partial curve, poor fit] under setting [1] and 12.6 µM [falling, partial curve, poor fit] under setting [2]. Take `COc1cc(/C=N/NS(=O)(=O)c2ccc(C)cc2)ccc1OCc1cccc(C(=O)O)c1`: the half-maximal activity concentration (AC50) under setting [1] was 5.01 µM [falling, partial curve].

Consider `S=C(NCCc1ccccn1)Nc1ccccc1`, for which the AC50 under setting [1] is 15.8 µM [falling, single point]. Still for that read-out and setting: with `COc1ccccc1CCNC(=O)c1ccc(Br)s1` the figure was 12.6 µM [falling, single point]. Consider `O=C(CCCN1C(=O)S/C(=C/c2ccccc2)C1=S)Nc1ccc(C(=O)O)cc1`, for which the half-maximal activity concentration (AC50) under setting [1] was 1.41 µM [falling, partial curve, poor fit].

For the compound `CCC(C)NS(=O)(=O)c1ccc(NC(C)=O)cc1` (configuration not stated), the AC50 under setting [1] is 20.6 µM [rising, single point].

`CC(=O)[C@@H]1[C@@H]2C(=O)N(C3CCCCC3)C(=O)[C@@H]2C2c3ccccc3C=CN21` (some centres not stated): under setting [1], the AC50 was 1.58 µM [falling, partial curve, poor fit].

On to `Cc1ccc(C(=O)N[C@@H](C)CN2C3=NC[C@H](C)N3C[C@H]2Cc2ccc(O)cc2)cc1Br`, for which, under setting [1], the AC50 was 6.31 µM [rising, single point]. Still for that read-out and setting: with `COc1ccc(C2CC(=O)Oc3cc(OC)ccc32)cc1` (configuration not stated) the figure was 29.1 µM [rising, single point]. With `Cc1cccc(C)c1OCc1nnc(SCC(=O)Nc2nccs2)o1`, the half-maximal activity concentration (AC50) under setting [2] was 23.1 µM [falling, single point]. In the case of `CCNc1ccc(C(=O)OCC)cc1NC(=O)c1cccc(N(C)C)c1`, the AC50 is 35.5 µM [rising, single point] under setting [1] and 20 µM [falling, single point] under setting [2]. Regarding `CCCC(=O)OCC(=O)Nc1ccc(N=Nc2ccccc2)cc1`, under setting [1], the half-maximal activity concentration (AC50) is 5.17 µM [rising, full curve, poor fit]. As to `C/C(=N\NC(=S)Nc1cccc(C)c1)c1cccc(N)c1`, the concentration at half-maximal activity (AC50) under setting [1] was 0.517 µM [rising, single point].
